The list shows a part of the results. Residues, ends and D or L forms follow the SMILES beside them. *: point of attachment. Cbz = O=C(OCc1ccccc1)*
Assays:
Test in all cases: log2 fold change, soluble protein after heating vs DMSO (PISA); higher = thermal stabilisation; K562 cells, 10 uM, 30 min; active = over 0.2 and 3.5 SD of the protein, either way, in both replicates (recomputed)
IRAK-1-4 Inhibitor I = compound: C1COCCN1CCN2C3=CC=CC=C3N=C2NC(=O)C4=CC(=CC=C4)[N+](=O)[O-] [IRAK-1-4 Inhibitor I]
Method in brief: (§1)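 K562 cells at 2×10^6 cells/mL were given 10 μM compound for 30 min. Aliquots then went through 3 min of heating across 48°C-58°C, were pooled, and were extracted in PBS with 0.5% NP-40 at 4°C, and the supernatant after 21,000xg for 90 min was quantified by TMTpro 16plex LC-MS/MS with channel sums equalised. Thermal stability relative to control samples, from duplicates, is given as log2 fold change.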

The chains behind the UniProt entries cited, without tags or fusion partners. Where a name states a change or a piece, a line headed by the entry shows the natural chain unless it says otherwise.
UniProt P04844: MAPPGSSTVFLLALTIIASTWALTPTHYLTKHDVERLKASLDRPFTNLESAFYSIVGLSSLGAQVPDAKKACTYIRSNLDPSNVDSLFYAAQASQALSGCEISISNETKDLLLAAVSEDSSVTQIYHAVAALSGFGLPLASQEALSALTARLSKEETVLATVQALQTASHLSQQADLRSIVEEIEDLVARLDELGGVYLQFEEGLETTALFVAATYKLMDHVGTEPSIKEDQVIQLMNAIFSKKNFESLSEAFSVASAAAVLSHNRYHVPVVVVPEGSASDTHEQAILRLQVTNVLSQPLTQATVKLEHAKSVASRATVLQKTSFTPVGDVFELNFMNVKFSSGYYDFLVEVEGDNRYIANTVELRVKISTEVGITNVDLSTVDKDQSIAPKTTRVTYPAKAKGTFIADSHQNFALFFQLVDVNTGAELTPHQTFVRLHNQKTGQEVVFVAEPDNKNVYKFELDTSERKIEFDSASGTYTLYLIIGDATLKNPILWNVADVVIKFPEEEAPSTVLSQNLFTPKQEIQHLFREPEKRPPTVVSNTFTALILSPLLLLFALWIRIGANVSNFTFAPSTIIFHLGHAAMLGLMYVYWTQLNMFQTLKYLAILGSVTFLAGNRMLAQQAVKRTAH
UniProt Q9H4A4: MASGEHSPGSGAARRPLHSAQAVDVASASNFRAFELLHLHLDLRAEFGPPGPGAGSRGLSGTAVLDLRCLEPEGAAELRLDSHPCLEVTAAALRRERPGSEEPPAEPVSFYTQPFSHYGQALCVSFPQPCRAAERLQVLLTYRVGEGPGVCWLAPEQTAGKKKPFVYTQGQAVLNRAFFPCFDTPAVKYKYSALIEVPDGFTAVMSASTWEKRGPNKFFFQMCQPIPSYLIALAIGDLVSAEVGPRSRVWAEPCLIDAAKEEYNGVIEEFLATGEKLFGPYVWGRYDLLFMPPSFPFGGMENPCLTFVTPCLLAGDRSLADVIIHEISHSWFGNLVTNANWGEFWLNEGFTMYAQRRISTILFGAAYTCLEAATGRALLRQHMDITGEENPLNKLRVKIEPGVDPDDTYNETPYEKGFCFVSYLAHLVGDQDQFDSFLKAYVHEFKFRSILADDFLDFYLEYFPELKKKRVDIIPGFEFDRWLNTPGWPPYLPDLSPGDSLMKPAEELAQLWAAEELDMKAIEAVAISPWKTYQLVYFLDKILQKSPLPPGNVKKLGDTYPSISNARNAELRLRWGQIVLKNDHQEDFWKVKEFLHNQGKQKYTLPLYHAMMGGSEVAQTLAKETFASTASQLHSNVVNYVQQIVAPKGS
UniProt Q9NQG5: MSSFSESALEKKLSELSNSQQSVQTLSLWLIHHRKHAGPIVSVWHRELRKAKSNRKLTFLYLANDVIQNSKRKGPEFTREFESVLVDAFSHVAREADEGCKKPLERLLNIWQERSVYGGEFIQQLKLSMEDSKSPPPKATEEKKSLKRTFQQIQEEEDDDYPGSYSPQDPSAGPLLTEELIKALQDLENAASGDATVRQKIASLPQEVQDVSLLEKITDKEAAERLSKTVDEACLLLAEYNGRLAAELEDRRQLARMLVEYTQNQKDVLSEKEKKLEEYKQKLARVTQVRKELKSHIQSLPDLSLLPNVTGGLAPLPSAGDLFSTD
UniProt Q8N5L8: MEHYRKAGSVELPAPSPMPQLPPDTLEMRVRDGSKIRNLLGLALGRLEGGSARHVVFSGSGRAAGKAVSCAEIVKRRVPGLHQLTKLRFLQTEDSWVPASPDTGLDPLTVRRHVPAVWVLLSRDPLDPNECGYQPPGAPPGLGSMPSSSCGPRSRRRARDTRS
UniProt P05386, whole entry, looked up: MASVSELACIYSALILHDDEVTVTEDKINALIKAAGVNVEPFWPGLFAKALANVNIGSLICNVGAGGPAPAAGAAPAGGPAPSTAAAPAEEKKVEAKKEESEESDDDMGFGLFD
UniProt P27694, whole entry, looked up: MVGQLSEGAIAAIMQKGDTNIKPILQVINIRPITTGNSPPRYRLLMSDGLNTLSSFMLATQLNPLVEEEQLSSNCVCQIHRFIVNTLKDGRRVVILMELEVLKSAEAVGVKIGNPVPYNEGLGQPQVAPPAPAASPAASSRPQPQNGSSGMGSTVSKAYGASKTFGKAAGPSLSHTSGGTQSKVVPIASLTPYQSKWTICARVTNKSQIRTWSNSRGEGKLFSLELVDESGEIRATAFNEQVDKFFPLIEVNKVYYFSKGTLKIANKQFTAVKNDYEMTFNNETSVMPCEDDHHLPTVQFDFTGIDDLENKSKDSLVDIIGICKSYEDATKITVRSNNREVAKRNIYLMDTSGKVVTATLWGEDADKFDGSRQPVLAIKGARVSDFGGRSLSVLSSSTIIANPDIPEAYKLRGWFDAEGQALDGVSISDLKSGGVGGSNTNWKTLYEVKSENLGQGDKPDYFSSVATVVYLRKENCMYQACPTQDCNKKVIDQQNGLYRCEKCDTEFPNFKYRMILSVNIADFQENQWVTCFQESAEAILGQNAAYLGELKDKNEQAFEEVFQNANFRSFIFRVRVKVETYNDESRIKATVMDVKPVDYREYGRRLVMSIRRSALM

ibrutinib = compound: C=CC(=O)N1CCC[C@@H](n2nc(-c3ccc(Oc4ccccc4)cc3)c3c(N)ncnc32)C1 [ibrutinib]
Method in brief: as §1

[1] = compound: CC(=O)c1cnc2ccc(-c3cc(Cl)c(O)c(Cl)c3)nc2c1N[C@H]1CC[C@H](CN(C)C)CC1
Method in brief: as §1

ralimetinib = compound: CC(C)(C)Cn1c(N)nc2ccc(-c3[nH]c(C(C)(C)C)nc3-c3ccc(F)cc3)nc21 [ralimetinib]
Method in brief: as §1

[2] = compound: CC(C)(O)CC(=O)NCCn1ccc2ncnc(Nc3ccc(Oc4cccc(C(F)(F)F)c4)c(Cl)c3)c21
Method in brief: as §1

[3] = compound: CC(C)C1=C2N=C(C=C(N2N=C1)NCC3=CC=CC=C3)NCCCCCCN
Method in brief: as §1

[4] = compound: CC(C)C[C@@H](C=O)NC(=O)[C@H](CC(C)C)NC(=O)[C@H](CC(C)C)NC(=O)OCc1ccccc1
Method in brief: as §1

pinometostat = compound: CC(C)N(C[C@H]1O[C@@H](n2cnc3c(N)ncnc32)[C@H](O)[C@@H]1O)[C@H]1C[C@@H](CCc2nc3cc(C(C)(C)C)ccc3[nH]2)C1 [pinometostat]
Method in brief: as §1

[5] = compound: CC1=C(C(CC(=O)N1)C2=CC=C(C=C2)C(F)(F)F)C(=O)NC3=C(C=C4C(=C3)C=NN4)F
Method in brief: as §1

[6] = compound: CC1=C(C2=C(C=C1)C(=O)C3=CC=CC=C3N2CCCN)C
Method in brief: as §1

RPN2 (UniProt P04844) was tested, and the log2 fold change (IRAK-1-4 Inhibitor I) was inactive: -0.04, the log2 fold change (ibrutinib) was inactive: -0.022 and the log2 fold change [1] was inactive: 0.027. For the same target, the log2 fold change (ralimetinib) was inactive: 0.023, the log2 fold change [2] was inactive: 0.007 and the log2 fold change [3] was inactive: -0.09. The log2 fold change [4] was inactive: -0.043, the log2 fold change (pinometostat) was inactive: -0.013 and the log2 fold change [5] was inactive: 0.013. The log2 fold change [6] was inactive: 0.019.
In the case of RPL35A (UniProt P18077), the log2 fold change (IRAK-1-4 Inhibitor I) was inactive: -0.205, the log2 fold change (ibrutinib) was inactive: 0.029 and the log2 fold change [1] was inactive: 0.228. For the same target, the log2 fold change (ralimetinib) was inactive: 0.193, the log2 fold change [2] was inactive: 0.113 and the log2 fold change [3] was inactive: -0.016. The log2 fold change [4] was inactive: 0.142, the log2 fold change (pinometostat) was inactive: 0.601 and the log2 fold change [5] was inactive: 0.098. The log2 fold change [6] was inactive: -0.791.
RPS7 (UniProt P62081) was tested, and the log2 fold change (IRAK-1-4 Inhibitor I) was inactive: -0.096, the log2 fold change (ibrutinib) was inactive: 0.045 and the log2 fold change [1] was inactive: 0.069. For the same target, the log2 fold change (ralimetinib) was inactive: 0.167, the log2 fold change [2] was inactive: 0.048 and the log2 fold change [3] was inactive: 0.001. The log2 fold change [4] was inactive: 0.089, the log2 fold change (pinometostat) was inactive: 0.308 and the log2 fold change [5] was inactive: 0.027. For the same target, the log2 fold change [6] was inactive: -0.264.
With RPL7A (UniProt P62424) the log2 fold change (IRAK-1-4 Inhibitor I) was inactive: -0.318, the log2 fold change (ibrutinib) was inactive: 0.082 and the log2 fold change [1] was inactive: 0.288. For the same target, the log2 fold change (ralimetinib) was inactive: 0.268, the log2 fold change [2] was inactive: 0.111 and the log2 fold change [3] was inactive: 0.037. The log2 fold change [4] was inactive: 0.222, the log2 fold change (pinometostat) was inactive: 0.534 and the log2 fold change [5] was inactive: 0.124. For the same target, the log2 fold change [6] was inactive: -0.997.
With RPS27 (UniProt P42677) the log2 fold change (IRAK-1-4 Inhibitor I) was inactive: -0.049, the log2 fold change (ibrutinib) was inactive: -0.021 and the log2 fold change [1] was inactive: 0.012. For the same target, the log2 fold change (ralimetinib) was inactive: 0.037, the log2 fold change [2] was inactive: -0.026 and the log2 fold change [3] was inactive: -0.505. For the same target, the log2 fold change [4] was inactive: 0.094, the log2 fold change (pinometostat) was inactive: 0.168 and the log2 fold change [5] was inactive: -0.009. The log2 fold change [6] was inactive: -0.142.
RPL5 (UniProt P46777) was tested, and the log2 fold change (IRAK-1-4 Inhibitor I) was inactive: -0.186, the log2 fold change (ibrutinib) was inactive: 0.058 and the log2 fold change [1] was inactive: 0.077. The log2 fold change (ralimetinib) was inactive: 0.121, the log2 fold change [2] was inactive: 0.072 and the log2 fold change [3] was inactive: 0.052. For the same target, the log2 fold change [4] was inactive: 0.114, the log2 fold change (pinometostat) was inactive: 0.198 and the log2 fold change [5] was inactive: 0.065. The log2 fold change [6] was inactive: -0.11.
In the case of RNPEP (UniProt Q9H4A4), the log2 fold change (IRAK-1-4 Inhibitor I) was inactive: -0.004, the log2 fold change (ibrutinib) was inactive: -0.018 and the log2 fold change [1] was inactive: 0.02. The log2 fold change (ralimetinib) was inactive: 0.011, the log2 fold change [2] was inactive: -0.055 and the log2 fold change [3] was inactive: -0.182. The log2 fold change [4] was inactive: -0.021, the log2 fold change (pinometostat) was inactive: 0.018 and the log2 fold change [6] was inactive: 0.137.
In the case of RPS3A (UniProt P61247), the log2 fold change (IRAK-1-4 Inhibitor I) was inactive: -0.133, the log2 fold change (ibrutinib) was inactive: 0.028 and the log2 fold change [1] was inactive: 0.072. For the same target, the log2 fold change (ralimetinib) was inactive: 0.053, the log2 fold change [2] was inactive: 0.069 and the log2 fold change [3] was inactive: -0.071. The log2 fold change [4] was inactive: 0.059, the log2 fold change (pinometostat) was inactive: 0.108 and the log2 fold change [6] was active: -0.565.
For RPS18 (UniProt P62269), the log2 fold change (IRAK-1-4 Inhibitor I) was inactive: -0.099, the log2 fold change (ibrutinib) was inactive: 0.053 and the log2 fold change [1] was inactive: 0.052. For the same target, the log2 fold change (ralimetinib) was inactive: 0.055, the log2 fold change [2] was inactive: 0.06 and the log2 fold change [3] was inactive: -0.043. For the same target, the log2 fold change [4] was inactive: 0.054, the log2 fold change (pinometostat) was inactive: 0.149 and the log2 fold change [6] was active: -0.531.
With RPRD1B (UniProt Q9NQG5) the log2 fold change (IRAK-1-4 Inhibitor I) was inactive: 0, the log2 fold change (ibrutinib) was inactive: -0.021 and the log2 fold change [1] was inactive: -0.017. The log2 fold change (ralimetinib) was inactive: 0, the log2 fold change [2] was inactive: -0.06 and the log2 fold change [3] was inactive: -0.018. The log2 fold change [4] was inactive: -0.028, the log2 fold change (pinometostat) was inactive: -0.038 and the log2 fold change [6] was inactive: 0.104.
With RPS15 (UniProt P62841) the log2 fold change (IRAK-1-4 Inhibitor I) was inactive: -0.114, the log2 fold change (ibrutinib) was inactive: 0.11 and the log2 fold change [1] was inactive: -0.042. The log2 fold change (ralimetinib) was inactive: 0.076, the log2 fold change [2] was inactive: 0.103 and the log2 fold change [3] was inactive: -0.043. For the same target, the log2 fold change [4] was inactive: 0.11, the log2 fold change (pinometostat) was inactive: 0.088 and the log2 fold change [6] was active: -0.574.
For RPP25L (UniProt Q8N5L8), the log2 fold change (IRAK-1-4 Inhibitor I) was inactive: -0.102, the log2 fold change (ibrutinib) was inactive: 0.021 and the log2 fold change [1] was inactive: -0.004. The log2 fold change (ralimetinib) was inactive: 0.049, the log2 fold change [2] was inactive: -0.015 and the log2 fold change [3] was inactive: -0.293. For the same target, the log2 fold change [4] was inactive: 0.035, the log2 fold change (pinometostat) was inactive: -0.002 and the log2 fold change [6] was active: -0.288.
With RPLP1 (UniProt P05386) the log2 fold change (IRAK-1-4 Inhibitor I) was inactive: -0.257, the log2 fold change (ibrutinib) was inactive: 0.042 and the log2 fold change [1] was inactive: 0.068. The log2 fold change (ralimetinib) was inactive: 0.065, the log2 fold change [2] was inactive: 0 and the log2 fold change [3] was inactive: 0.073. The log2 fold change [4] was inactive: 0.056, the log2 fold change (pinometostat) was inactive: 0.323 and the log2 fold change [5] was inactive: 0.11. For the same target, the log2 fold change [6] was inactive: -0.67.
In the case of RPS14 (UniProt P62263), the log2 fold change (IRAK-1-4 Inhibitor I) was inactive: -0.178, the log2 fold change (ibrutinib) was inactive: 0.03 and the log2 fold change [1] was inactive: 0.079. For the same target, the log2 fold change (ralimetinib) was inactive: 0.135, the log2 fold change [2] was inactive: -0.014 and the log2 fold change [3] was inactive: -0.016. For the same target, the log2 fold change [4] was inactive: 0.003, the log2 fold change (pinometostat) was inactive: -0.013 and the log2 fold change [6] was active: -0.586.
With RPA1 (UniProt P27694) the log2 fold change (IRAK-1-4 Inhibitor I) was inactive: -0.026, the log2 fold change (ibrutinib) was inactive: -0.022 and the log2 fold change [1] was inactive: -0.03. The log2 fold change (ralimetinib) was inactive: -0.008, the log2 fold change [2] was inactive: -0.053 and the log2 fold change [3] was inactive: -0.019. For the same target, the log2 fold change [4] was inactive: -0.027, the log2 fold change (pinometostat) was inactive: -0.021 and the log2 fold change [6] was inactive: 0.202.

— the supplement of paper PMC10849652
